Structures can show the parent of a compound that is named as a salt. This is one part of the list. Hit calls seldom repeat between salt and free forms of one compound.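 Kinases, fused to nanoluciferase, were expressed in K562 cells; luminescence was measured every 4 h from 2 to 18 h as percent of control (DMSO = 100%, positive control = 0%). A time point is decreased if signal falls significantly (2 sigma). Hits were called by the authors by a rule that is not shown; the count of time points alone does not decide it.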
Target: ERBB4_R711C (clone: ERBB4_mut) (UniProt Q15303)
Experiment: kinase-Nluc reporter destabilization hit call (1 = scored as downregulated) (binary); higher = compound decreases kinase abundance
Conditions: K562; 2-18 h

Amino acid sequences for entries named in this document (tags omitted).
UniProt Q15303, whole entry R711C: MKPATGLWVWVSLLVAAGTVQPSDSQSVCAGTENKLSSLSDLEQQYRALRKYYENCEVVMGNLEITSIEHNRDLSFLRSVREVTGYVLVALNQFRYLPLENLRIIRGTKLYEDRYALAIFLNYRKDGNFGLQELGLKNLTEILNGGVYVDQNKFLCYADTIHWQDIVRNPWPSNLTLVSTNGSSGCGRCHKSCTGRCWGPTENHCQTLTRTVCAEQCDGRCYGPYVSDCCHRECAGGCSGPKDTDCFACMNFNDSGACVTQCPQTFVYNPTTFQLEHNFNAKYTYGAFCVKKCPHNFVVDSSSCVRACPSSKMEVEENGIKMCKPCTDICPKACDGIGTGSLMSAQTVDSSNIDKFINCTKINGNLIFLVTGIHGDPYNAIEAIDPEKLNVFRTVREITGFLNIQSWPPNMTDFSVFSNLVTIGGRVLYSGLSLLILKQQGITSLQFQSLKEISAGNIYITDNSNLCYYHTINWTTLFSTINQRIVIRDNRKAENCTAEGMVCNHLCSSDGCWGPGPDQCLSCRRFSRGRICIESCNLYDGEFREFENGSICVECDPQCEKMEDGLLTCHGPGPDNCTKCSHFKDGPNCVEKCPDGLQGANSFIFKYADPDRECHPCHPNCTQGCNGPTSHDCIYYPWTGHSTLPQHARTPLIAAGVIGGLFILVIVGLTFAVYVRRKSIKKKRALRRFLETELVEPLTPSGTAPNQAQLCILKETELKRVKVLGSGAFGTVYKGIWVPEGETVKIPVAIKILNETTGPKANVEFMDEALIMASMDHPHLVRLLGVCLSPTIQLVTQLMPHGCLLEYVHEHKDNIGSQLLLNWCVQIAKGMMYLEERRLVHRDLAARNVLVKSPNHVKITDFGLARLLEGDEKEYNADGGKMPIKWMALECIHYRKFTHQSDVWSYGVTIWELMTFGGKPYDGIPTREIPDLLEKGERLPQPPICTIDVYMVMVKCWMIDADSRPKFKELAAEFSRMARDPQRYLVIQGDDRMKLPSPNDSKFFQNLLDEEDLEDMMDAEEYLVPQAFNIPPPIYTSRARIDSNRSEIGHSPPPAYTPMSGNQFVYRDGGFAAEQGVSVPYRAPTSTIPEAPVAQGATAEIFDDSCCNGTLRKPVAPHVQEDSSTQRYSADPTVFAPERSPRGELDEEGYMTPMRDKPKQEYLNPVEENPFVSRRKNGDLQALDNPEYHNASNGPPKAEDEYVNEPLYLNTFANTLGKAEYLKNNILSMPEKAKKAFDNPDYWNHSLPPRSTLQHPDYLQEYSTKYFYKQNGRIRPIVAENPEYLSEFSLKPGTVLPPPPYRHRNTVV

kinase-Nluc reporter destabilization hit call, inactive:
O=c1cc(-c2ccc(O[C@@H]3O[C@H](CO)[C@@H](O)[C@H](O)[C@H]3O)cc2)oc2cc(O)c([C@@H]3O[C@H](CO)[C@@H](O)[C@H](O)[C@H]3O[C@@H]3OC[C@H](O)[C@H](O)[C@H]3O)c(O)c12 [Vaccarin] (10 µM) 0
O=CN1CCN(c2ccc(C=C3C(=O)Nc4ccccc43)cc2)CC1 (10 µM) 0
COc1ccc(Cl)cc1N(CC(=O)Nc1ccc2c(c1)OCO2)S(=O)(=O)c1ccccc1 (2.5 µM) 0
CCc1c(C(=O)NNC(=O)[C@H](O)c2cc(F)cc(F)c2)ccc(O)c1C (10 µM) 0
CN(C)CCn1cc2cc(NC(=O)c3cccc(C(F)(F)F)n3)c(C(C)(C)O)cc2n1 (10 µM) 0
CCC[C@H](C)Oc1nc(N)c2[nH]c(=O)n(CCCCCN3CCCCC3)c2n1 (10 µM) 0
CCOC(=O)c1c(C)[nH]c(C=C2C(=O)Nc3ccccc32)c1C (10 µM) 0
Cc1ccc(NC(=O)N2CCN(c3nc(N)nc4sc(-c5cccnc5)nc34)CC2)cc1 [PI4KIII beta inhibitor 3] (10 µM) 0
CS[C@@]1(C(=O)Nc2ccc3[nH]nc(-c4ccc(OC(C)C)nc4)c3c2)CCN(CC(=O)N2CC=C(c3ccc(-c4ncn(C)n4)cc3)CC2)C1 (2.5 µM) 0
O=C(Nc1ccc(Cl)cc1)C1CN(C(=O)c2cccc(-c3ccco3)c2)CC(F)(F)C1 (stereo not given) (2.5 µM) 0
Nc1ccc(Sc2nc3ccccc3s2)c(Cl)c1 [KRAS inhibitor-9] (10 µM) 0
Cn1c(N2CCO[C@@H](c3ccc(F)cc3)C2)nc(-c2ccncn2)cc1=O (10 µM) 0
COc1ccc(CN2CCC(c3ccc4nc(C(=O)N5CCN(Cc6ccc(C(F)(F)F)cc6)CC5)[nH]c4c3)CC2)cn1 (2.5 µM) 0
O=C(O)c1c[nH]c2cc(Cl)c(-c3ccc(C4(O)CCC4)cc3)cc12 (10 µM) 0
CC(C)(Oc1ccc(Cl)cc1)C(=O)Nc1ccc(OCc2ccc(C#N)cc2)cc1 [AMPK activator 4] (10 µM) 0
O=C(NCc1ccn[nH]1)c1cc([C@@H]2CCNC[C@H]2COc2ccc3c(c2)OCO3)ccc1F [GRK2-IN-1 (hydrochloride)] (10 µM) 0
Cc1cnc(Cl)nc1-c1ccc(N(Cc2ccc(CNC(=O)C(F)F)cc2)C(=O)c2ccc(O)cc2O)cc1 (10 µM) 0
CC1=C(C#N)C(c2ccc3[nH]nc(C)c3c2)C(C#N)=C(C)N1 (10 µM) 0
CN(C[C@@H]1COCCO1)S(=O)(=O)Nc1ccc2ccc3ncc(-c4cnn(C)c4)cc3c(=O)c2c1 (2.5 µM) 0
CC(=O)Nc1nc(C)c(-c2cc(C)c3c(c2)CN([C@@H](C)C2CC2)C3=O)s1 (10 µM) 0
O=C(Nc1ccccc1C(=O)NC1CCCCNC1=O)c1cc2ccccc2s1 (stereo not given) (10 µM) 0
CO[C@]1(C(=O)N[C@@H](C)c2ccc(-n3cc(F)cn3)nc2)CC[C@H](c2nc(C)cc(Nc3cc(C)[nH]n3)n2)CC1 [Pralsetinib] (10 µM) 0
O=[N+]([O-])c1ccc(-c2nc(-c3ccc(F)cc3)c(-c3ccncc3)[nH]2)cc1 (10 µM) 0
CC(ONC(=O)c1cc(C(F)(F)F)cc(C(F)(F)F)c1)C(=O)Nc1ccc(Cl)cc1 (stereo not given) (2.5 µM) 0
Cc1cncc2cccc(S(=O)(=O)N3CCCNC[C@@H]3C)c12 [H-1152 (dihydrochloride)] (10 µM) 0
Cc1nc(NC(=O)N2CCC[C@H]2C(N)=O)sc1-c1ccnc(C(C)(C)C(F)(F)F)c1 [Alpelisib] (2.5 µM) 0
CCCCNc1ncc2c(-c3ccc(F)cc3)nn(CC3CCC(N)CC3)c2n1 (stereo not given) (2.5 µM) 0
CS(=O)(=O)c1ccc([C@@H](CC2CCCC2)C(=O)Nc2nccs2)cc1 (10 µM) 0
CO/N=C1/C(c2c(O)[nH]c3cc(Cl)c(Cl)cc23)=Nc2ccccc21 (10 µM) 0
CNCc1ccccc1Sc1cccc2ccccc12 [IFN alpha-IFNAR-IN-1 (hydrochloride)] (10 µM) 0

A run of entries of the results above:
kinase-Nluc reporter destabilization hit call, inactive:
CCC[C@H](C)Oc1nc(N)c2[nH]c(=O)n(CCCCCN3CCCCC3)c2n1 (10 µM) 0
CCOC(=O)c1c(C)[nH]c(C=C2C(=O)Nc3ccccc32)c1C (10 µM) 0

Source: the supplement of paper PMC12823440, “Inhibitors supercharge kinase turnover through native proteolytic circuits” (Nature, 2025)
